Data published in article PMC4834570.
These are yes or no findings as the source states them, for the method shown. In cells and extracts the contact can be indirect. Some results given as binding are weak or reduced against the parent protein; the word gives no strength.

Chains of the proteins cited; added tags and fusions are not shown.
UniProt P48538: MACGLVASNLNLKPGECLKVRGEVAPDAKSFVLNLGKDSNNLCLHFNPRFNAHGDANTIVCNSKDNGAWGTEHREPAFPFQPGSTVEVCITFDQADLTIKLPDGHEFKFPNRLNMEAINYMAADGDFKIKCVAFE
UniProt A0A9J7F3R3: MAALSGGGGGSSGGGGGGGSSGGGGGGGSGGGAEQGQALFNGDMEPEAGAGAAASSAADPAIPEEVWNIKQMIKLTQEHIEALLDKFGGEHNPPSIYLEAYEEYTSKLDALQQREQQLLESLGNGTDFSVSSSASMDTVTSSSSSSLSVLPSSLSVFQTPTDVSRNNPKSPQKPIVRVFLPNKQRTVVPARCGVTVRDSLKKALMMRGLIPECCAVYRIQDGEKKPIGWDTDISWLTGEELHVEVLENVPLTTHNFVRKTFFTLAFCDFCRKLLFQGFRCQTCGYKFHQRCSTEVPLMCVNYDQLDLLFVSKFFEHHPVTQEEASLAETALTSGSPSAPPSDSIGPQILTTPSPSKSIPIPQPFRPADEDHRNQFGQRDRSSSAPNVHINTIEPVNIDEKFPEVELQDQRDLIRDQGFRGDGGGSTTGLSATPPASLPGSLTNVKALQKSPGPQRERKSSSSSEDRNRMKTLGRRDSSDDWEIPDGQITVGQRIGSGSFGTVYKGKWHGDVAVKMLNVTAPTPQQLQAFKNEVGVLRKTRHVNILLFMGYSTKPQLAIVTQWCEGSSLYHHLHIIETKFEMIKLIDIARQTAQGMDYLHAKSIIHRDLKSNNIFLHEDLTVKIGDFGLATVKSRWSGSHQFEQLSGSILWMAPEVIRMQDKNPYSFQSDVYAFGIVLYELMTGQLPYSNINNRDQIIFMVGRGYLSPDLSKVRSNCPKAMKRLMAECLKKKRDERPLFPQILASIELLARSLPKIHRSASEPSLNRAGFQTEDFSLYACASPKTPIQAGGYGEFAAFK

Target: endogenous Gal-1 (BHK21 cells) (hamster (endogenous in BHK21)) (UniProt P48538)
Test: proximity ligation; in situ PLA (Duolink II) on endogenous proteins in BHK21 cells, serum starved 5 h, 100 ng/ml EGF for 10 min, fixed with methanol; Gal-1 siRNA as negative control

In the case of “endogenous C-Raf (BHK21 cells) (from UniProt G3HVN3 1-648)”, the binding is reported as “binds”.
In the case of “endogenous B-Raf (BHK21 cells) (from UniProt A0A9J7F3R3 1-798)”, the binding is reported as “binds”.
